From PubChem BioAssay AID1347072 (National Center for Advancing Translational Sciences (NCATS), 2019)
In all, about 44,000 compounds went through this assay and fewer than 10 were called active. This list was built around the results that the source calls inconclusive (neither active nor inactive); the mix of calls is not that of the screen. The call rests on the fitted dose curve; in most records, active means well fitted curve in the direction sought with a large enough effect; inconclusive means small, poorly fitted or top-dose-only effect, or another doubt; inactive means no such curve, though single readings can be large or run the other way. Potencies of inconclusive entries are doubtful fits and often do not repeat.

Chains of the proteins cited; added tags and fusions are not shown. Lines headed by an entry give the natural chain unless they say otherwise; changes in a name come on top.
UniProt P51570: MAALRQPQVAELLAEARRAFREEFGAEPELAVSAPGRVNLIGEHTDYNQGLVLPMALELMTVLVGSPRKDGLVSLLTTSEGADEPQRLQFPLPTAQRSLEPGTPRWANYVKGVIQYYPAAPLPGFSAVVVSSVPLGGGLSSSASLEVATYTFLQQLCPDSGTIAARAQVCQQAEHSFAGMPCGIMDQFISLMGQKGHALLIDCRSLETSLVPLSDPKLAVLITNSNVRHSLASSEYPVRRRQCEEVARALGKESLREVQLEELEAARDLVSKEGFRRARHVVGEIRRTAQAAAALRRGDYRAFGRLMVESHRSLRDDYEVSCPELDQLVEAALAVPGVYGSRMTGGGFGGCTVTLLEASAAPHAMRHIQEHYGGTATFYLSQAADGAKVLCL

target: Galactokinase (Homo sapiens) (UniProt P51570); experiment: qHTS Assay for Inhibitors of Human Galactokinase (GALK): NCGC Sytravon Library Screen; details: recombinant GALK, Kinase-Glo ATP luminescence, 1 h; series mostly up to 57.5 µM
Summary of the method: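 5 nM GALK with 35 µM ATP and 100 µM galactose in HEPES pH 8.0, MgCl2, NaCl, DTT, BSA; 1 h RT reaction, remaining ATP detected by Kinase-Glo Plus luminescence after 10 min; qHTS concentration series.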

Potency, inconclusive:
COC(=O)c1ccccc1NC(=O)Nc1cccc(OCc2cc(=O)n3cccc(C)c3n2)c1 25.1 µM [inhibitor, partial curve, poor fit], Cc1ccc(C)n1-c1nnc(N2CCCC(C(=O)NCc3ccc(Cl)cc3)C2)s1 (stereo not drawn) 6.31 µM [inhibitor, single point], CCOc1ccc(C(c2c(O)cc(C)n(CCOC)c2=O)N2CCN(c3ccccc3)CC2)cc1 (stereo not drawn) 4.47 µM [inhibitor, full curve, poor fit], COCCOC(=O)c1c(C)oc2c1cc(NS(=O)(=O)c1ccc(Cl)c(C)c1)c1ccccc12 2 µM [inhibitor, full curve, poor fit], O=C1CC(c2ccc(Br)cc2)c2c(ccc3ccccc23)N1 (stereo not drawn) 0.447 µM [inhibitor, full curve, poor fit], O=C(COc1ccc(Br)cc1)Nc1ccc(C(=O)OC2CCCCC2)cc1 25.1 µM [inhibitor, partial curve, poor fit], COc1ccc(CCNC(=O)c2ccc3c(c2)CCN3S(=O)(=O)c2ccc(C)cc2)cc1OC 39.8 µM [inhibitor, partial curve, poor fit], Cc1ccc2nc(COc3cccc(NC(=O)c4cccc(Cl)c4)c3)cc(=O)n2c1 39.8 µM [inhibitor, partial curve, poor fit], O=C(O)c1cccc(NC(=O)c2cccc(S(=O)(=O)Nc3cccc(F)c3)c2)c1 20 µM [inhibitor, partial curve, poor fit], CC(C)OCCCn1c(=O)c2ccccc2n2c(-c3ccc(F)c(F)c3)nnc12 1.12 µM [inhibitor, partial curve, poor fit], Cc1cc2c(cc1S(=O)(=O)N1CCC(C(N)=O)CC1)OCC(=O)N2 3.55 µM [inhibitor, full curve, poor fit], Cc1cccc(NC(=O)c2cc3c(=O)n4ccccc4nc3n2C)c1C 7.08 µM [inhibitor, partial curve, poor fit], Cc1ccc(NS(=O)(=O)c2ccc3nc(-c4ccccc4)[nH]c3c2)c(Cl)c1 35.5 µM [inhibitor, partial curve, poor fit], COC(=O)c1cnc(N2CCN(c3ccccc3F)CC2)c2ccccc12 1.12 µM [inhibitor, full curve, poor fit], CCOC(=O)c1cc2c(=O)n3ccccc3nc2n(CC(C)C)c1=NC(=O)c1c(-c2c(F)cccc2Cl)noc1C 1.78 µM [inhibitor, partial curve, poor fit], COc1cccc(Cn2c(=O)n(Cc3ccco3)c(=O)c3oc4ccccc4c32)c1 0.794 µM [inhibitor, full curve, poor fit], CCOC(=O)c1noc2ncnc(N3CCC(C)CC3)c12 5.62 µM [inhibitor, full curve, poor fit], Cc1cccc(N(C)C(=O)c2cc(S(=O)(=O)N3CCCC3)cn2C)c1 7.08 µM [inhibitor, partial curve, poor fit], O=C(CCSCc1cnn(-c2ccccc2)c1-n1cccc1)NCc1ccc(Cl)cc1 0.891 µM [inhibitor, full curve, poor fit], Cc1c(Cl)cccc1NC(=O)CSc1ncc(S(=O)(=O)c2ccc(C(C)C)cc2)c(=O)[nH]1 28.2 µM [inhibitor, partial curve, poor fit], COc1ccc(Cn2c(=O)n(-c3ccccc3C)c(=O)c3c4c(sc32)CN(C(C)=O)CC4)cc1 1.12 µM [inhibitor, partial curve, poor fit], Cc1nc(-n2nc(C)c(Cc3ccc4c(c3)OCO4)c2C)sc1C(=O)Nc1cccc(Cl)c1 0.158 µM [inhibitor, full curve, poor fit], CC(Oc1ccc(F)cc1)C(=O)Nc1nc(-c2ccc(F)cc2)ns1 (stereo not drawn) 39.8 µM [inhibitor, partial curve, poor fit], O=C(NC1CCCCCC1)C1CCN(C(=O)N2CCOc3ccc(Cl)cc32)CC1 3.55 µM [inhibitor, partial curve, poor fit], Cc1cc(S(=O)(=O)Nc2cc3c(cc2Cl)n(C)c(=O)c(=O)n3C)ccc1F 1 µM [inhibitor, full curve, poor fit], O=S(=O)(NCCc1nnc2ccc(SCc3ccc(C(F)(F)F)cc3)nn12)c1ccccc1 0.158 µM [inhibitor, full curve, poor fit], Cc1ccc(NC(=O)CSc2nc(C)c(Cc3ccccc3)c(=O)[nH]2)cc1C 44.7 µM [inhibitor, partial curve, poor fit], Cc1ccc(S(=O)(=O)c2nnn3c2nc(N2CCCC2)c2sccc23)cc1C 4.47 µM [inhibitor, partial curve, poor fit], COC(=O)c1cc2sc(C)cc2n1Cc1ccc(F)cc1Cl 2.82 µM [inhibitor, partial curve, poor fit], Cc1ccc(NC(=O)C2CCN(c3nc4ccccc4[nH]3)CC2)cc1Cl 39.8 µM [inhibitor, partial curve, poor fit], Clc1cccc(N2CCN(c3nc4ccccc4c4nc(-c5cccnc5)nn34)CC2)c1 39.8 µM [inhibitor, partial curve, poor fit], CC(C)CCNC(=O)c1ccc(Cn2c(=O)c3cccn3c3cccnc32)cc1 0.891 µM [inhibitor, full curve, poor fit], O=C(Nc1ccc(F)c(Cl)c1)C1CCN(c2ncccn2)CC1 39.8 µM [inhibitor, partial curve, poor fit], O=C(NCc1ccc(Cl)cc1)C(=O)NCC(c1cccnc1)N1CCN(c2ccccc2)CC1 (stereo not drawn) 7.08 µM [inhibitor, partial curve, poor fit], COc1cc(NC(=O)C2=CC(c3ccc(F)cc3)=NS(=O)(=O)N2C)cc(OC)c1OC 2.51 µM [inhibitor, partial curve, poor fit], CCOC(=O)c1c(C)n(-c2ccc(OC)cc2)c2ccc(OC(=O)COc3ccccc3)cc12 22.4 µM [inhibitor, partial curve, poor fit], CCc1nn2c(=O)cc(COC(=O)Cc3ccccc3)nc2s1 44.7 µM [inhibitor, partial curve, poor fit], CC(C)(C)C1CCc2c(sc(NC(=O)C3c4ccccc4Oc4ccccc43)c2C(N)=O)C1 (stereo not drawn) 39.8 µM [inhibitor, partial curve, poor fit], O=C(CN1C(=O)COc2ccc(S(=O)(=O)Nc3ccccc3)cc21)Nc1cccc(Cl)c1 0.708 µM [inhibitor, full curve, poor fit]

Potency, inactive:
Cc1cc(C)cc(NS(=O)(=O)c2ccc3[nH]cc(C(=O)NCCc4ccccc4)c(=O)c3c2)c1, CC(=O)N1CCCc2cc(S(=O)(=O)N3CCC(C(=O)Nc4ccc(C)cc4Cl)CC3)ccc21, CCN(CC)S(=O)(=O)c1ccc(C(=O)NC2CC(=O)N(c3ccc4c(c3)OCCO4)C2)cc1 (stereo not drawn), Cc1cc(NC(=O)C2CCCN(S(=O)(=O)c3ccc(Br)s3)C2)ccc1Br (stereo not drawn), COc1ccc(Cn2c(C(=O)O)c(CNCc3cccs3)c3ccc(C)cc32)cc1, Cc1ccc(NC(=O)c2ccc(C)c(S(=O)(=O)N3CCCCCC3)c2)cc1, CCOC(=O)c1ccccc1NC(=O)c1c(C)oc2ncnc(N3CCOCC3)c12, COc1cccc(-n2c(=O)c3c(C)c(C)sc3n(Cc3ccccc3C#N)c2=O)c1, Cn1ccc2c(OCC(=O)Nc3ccc([N+](=O)[O-])cc3)cccc2c1=O, Cc1ccccc1C(=O)OCc1cc(=O)n2c(C)csc2n1, COc1ccc(S(=O)(=O)n2ccnc2)cc1C(C)(C)C, Cc1cccc(NC(=O)c2c(NC(=O)C(F)(F)F)sc3c2CCCCC3)c1, CC(C)c1ccc(NC(=O)CN(C)S(=O)(=O)c2ccc3c(c2)c(=O)n(C)c(=O)n3C)cc1, Cc1c(C(=O)OCCOc2ccccc2)[nH]c2c1C(=O)CC(c1ccccc1)C2 (stereo not drawn), COCCNC(=O)Cn1nc(C)c2c(C)n(-c3ccc(C)cc3)nc2c1=O, COc1ccc(S(=O)(=O)NCc2cccn2Cc2cccc(C)c2)cc1OC, COc1ccccc1CNC(=O)Nc1ccc2c(c1)N(C)C(=O)c1ccccc1S2, CC(CCO)Nc1nc2c(c(=O)n(C)c(=O)n2C)n1Cc1ccc(Br)cc1 (stereo not drawn), O=S(=O)(NCc1ccc(F)cc1)c1ccc2[nH]c3c(c2c1)CCCCC3, CCCCNC(=O)c1ccc(-c2nc(CN3CCc4ccccc43)c(C)o2)cc1, Cc1c(-c2cccc(NC(=O)Cc3ccccc3)c2)nc2ncccn12, Cc1ccc(-n2ncc3c(N4CCN(Cc5ccccc5)CC4)ncnc32)cc1C, CCN1c2ccccc2-c2nc(SCC(=O)Nc3cc(C)c(Cl)cc3OC)ncc2S1(=O)=O, Cc1ccc(C2C=C(c3ccccc3)Nc3nc(NS(=O)(=O)c4ccccc4)nn32)cc1 (stereo not drawn)
